Measured values as given in article PMC8738735.
Read-outs that look alike come from different tables or passages of the source. These are yes or no findings as the source states them, for the method shown. Binding seen in cells or lysates may run through a third protein. Some binding calls cover weakened binding; strength is not graded here.

Amino acid sequences for entries named in this document (tags omitted).
UniProt P63158: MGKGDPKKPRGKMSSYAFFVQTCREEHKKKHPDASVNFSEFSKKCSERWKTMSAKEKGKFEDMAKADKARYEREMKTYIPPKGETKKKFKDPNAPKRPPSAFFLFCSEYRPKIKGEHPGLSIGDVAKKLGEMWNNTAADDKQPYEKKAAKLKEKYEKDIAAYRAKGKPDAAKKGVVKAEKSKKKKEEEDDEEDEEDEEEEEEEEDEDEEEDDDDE
UniProt P45481: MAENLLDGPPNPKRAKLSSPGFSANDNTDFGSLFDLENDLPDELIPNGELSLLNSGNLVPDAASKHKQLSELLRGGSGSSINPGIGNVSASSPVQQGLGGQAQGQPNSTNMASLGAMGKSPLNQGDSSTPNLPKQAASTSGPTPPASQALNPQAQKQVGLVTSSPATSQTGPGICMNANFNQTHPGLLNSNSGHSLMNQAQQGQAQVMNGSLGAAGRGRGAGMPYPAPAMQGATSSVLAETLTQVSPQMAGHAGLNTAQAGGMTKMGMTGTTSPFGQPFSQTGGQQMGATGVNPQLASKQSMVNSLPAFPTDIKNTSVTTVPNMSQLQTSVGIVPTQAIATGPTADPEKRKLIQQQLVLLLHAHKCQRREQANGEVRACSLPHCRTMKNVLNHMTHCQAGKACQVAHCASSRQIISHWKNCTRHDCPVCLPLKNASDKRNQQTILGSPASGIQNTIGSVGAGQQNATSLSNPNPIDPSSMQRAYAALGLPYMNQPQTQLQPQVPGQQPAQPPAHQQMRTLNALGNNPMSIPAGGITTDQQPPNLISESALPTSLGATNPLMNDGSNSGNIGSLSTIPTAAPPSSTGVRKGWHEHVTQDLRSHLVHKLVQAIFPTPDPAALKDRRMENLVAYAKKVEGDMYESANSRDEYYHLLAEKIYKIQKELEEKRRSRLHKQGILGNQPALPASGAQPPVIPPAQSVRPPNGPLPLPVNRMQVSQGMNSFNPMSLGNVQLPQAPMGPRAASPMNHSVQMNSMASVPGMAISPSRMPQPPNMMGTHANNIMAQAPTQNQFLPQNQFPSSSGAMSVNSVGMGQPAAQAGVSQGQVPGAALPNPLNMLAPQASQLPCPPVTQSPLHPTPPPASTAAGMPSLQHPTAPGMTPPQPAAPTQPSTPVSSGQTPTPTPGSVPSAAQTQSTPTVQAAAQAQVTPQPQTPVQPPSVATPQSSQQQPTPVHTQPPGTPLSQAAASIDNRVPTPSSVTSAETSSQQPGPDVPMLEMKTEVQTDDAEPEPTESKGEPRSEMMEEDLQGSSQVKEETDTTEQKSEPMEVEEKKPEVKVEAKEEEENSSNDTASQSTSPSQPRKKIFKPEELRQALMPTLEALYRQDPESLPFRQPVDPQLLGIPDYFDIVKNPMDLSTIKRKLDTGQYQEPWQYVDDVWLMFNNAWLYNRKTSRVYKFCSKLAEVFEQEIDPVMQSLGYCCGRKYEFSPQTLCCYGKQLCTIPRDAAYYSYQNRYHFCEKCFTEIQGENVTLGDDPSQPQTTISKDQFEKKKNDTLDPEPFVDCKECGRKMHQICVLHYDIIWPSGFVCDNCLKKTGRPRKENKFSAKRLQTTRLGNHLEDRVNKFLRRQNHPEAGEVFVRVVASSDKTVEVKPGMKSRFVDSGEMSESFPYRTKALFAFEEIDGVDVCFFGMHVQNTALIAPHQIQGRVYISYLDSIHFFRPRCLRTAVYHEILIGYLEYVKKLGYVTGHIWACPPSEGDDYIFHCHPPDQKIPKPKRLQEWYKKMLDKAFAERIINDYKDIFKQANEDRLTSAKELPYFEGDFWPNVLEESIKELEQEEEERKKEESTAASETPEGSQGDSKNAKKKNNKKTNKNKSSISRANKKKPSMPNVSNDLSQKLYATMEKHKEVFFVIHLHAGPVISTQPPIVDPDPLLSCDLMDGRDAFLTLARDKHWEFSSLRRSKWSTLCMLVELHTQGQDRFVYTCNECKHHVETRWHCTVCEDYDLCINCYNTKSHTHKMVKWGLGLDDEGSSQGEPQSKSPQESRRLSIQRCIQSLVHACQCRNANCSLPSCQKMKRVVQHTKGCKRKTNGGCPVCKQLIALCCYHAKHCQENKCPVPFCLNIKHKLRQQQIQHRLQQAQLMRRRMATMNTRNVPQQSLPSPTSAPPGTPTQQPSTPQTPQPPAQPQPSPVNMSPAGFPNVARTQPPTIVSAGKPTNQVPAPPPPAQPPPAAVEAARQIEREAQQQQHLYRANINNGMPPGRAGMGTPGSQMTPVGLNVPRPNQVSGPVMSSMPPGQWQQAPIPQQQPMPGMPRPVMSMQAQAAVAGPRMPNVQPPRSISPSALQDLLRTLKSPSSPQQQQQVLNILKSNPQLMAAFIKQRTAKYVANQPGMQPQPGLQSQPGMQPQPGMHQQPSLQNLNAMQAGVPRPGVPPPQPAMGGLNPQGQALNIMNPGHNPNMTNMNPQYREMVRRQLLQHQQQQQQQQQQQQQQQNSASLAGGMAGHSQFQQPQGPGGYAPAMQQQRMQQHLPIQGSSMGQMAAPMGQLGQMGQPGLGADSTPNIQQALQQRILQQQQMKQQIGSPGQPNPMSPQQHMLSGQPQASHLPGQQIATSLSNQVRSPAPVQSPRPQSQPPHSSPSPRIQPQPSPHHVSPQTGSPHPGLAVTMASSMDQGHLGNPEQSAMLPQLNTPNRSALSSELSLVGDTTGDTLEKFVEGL

Key:
[1] = target: high mobility group box-1 (HMGB1) (mouse (endogenous in RAW 264.7)) (UniProt P63158); test: co-IP; about 200 µg of RAW 264.7 cell lysate protein precipitated with anti-HMGB1 antibody overnight at 4 °C, protein A/G-agarose beads, four washes with lysis buffer, immunoblot of the partner; cells treated with vehicle, lactic acid or sodium lactate (10 mM), for CD63 also with CHC (3 mM)
[2] = target: high mobility group box-1 (HMGB1) (mouse (endogenous in RAW 264.7)) (UniProt P63158); test: as above; remark: listed apart in the source

Row | binding [1] | binding [2] | Molecule
1 | binds | – | CREB-binding protein (CBP) (from UniProt P45481 1-2441) (enzyme)
2 | – | binds | Lamp1 (protein, UniProt P11438 25-406) LFEVKNNGTTCIMASFSASFLTTYETANGSQIVNISLPASAEVLKNGSSCGKENVSDPSLTITFGRGYLLTLNFTKNTTRYSVQHMYFTYNLSDTEHFPNAISKEIYTMDSTTDIKADINKAYRCVSDIRVYMKNVTVVLRDATIQAYLSSGNFSKEETHCTQDGPSPTTGPPSPSPPLVPTNPTVSKYNVTGNNGTCLLASMALQLNITYLKKDNKTVTRAFNISPNDTSSGSCGINLVTLKVENKNRALELQFGMNASSSLFFLQGVRLNMTLPDALVPTFSISNHSLKALQATVGNSYKCNTEEHIFVSKMLSLNVFSVQVQAFKVDSDRFGSVEECVQDGNNMLIPIAVGGALAGLVLIVLIAYLIGRKRSHAGYQTI
3 | – | binds | CD63 (protein, UniProt P41731 1-238) MAVEGGMKCVKFLLYVLLLAFCACAVGLIAIGVAVQVVLKQAITHETTAGSLLPVVIIAVGAFLFLVAFVGCCGACKENYCLMITFAIFLSLIMLVEVAVAIAGYVFRDQVKSEFNKSFQQQMQNYLKDNKTATILDKLQKENNCCGASNYTDWENIPGMAKDRVPDSCCINITVGCGNDFKESTIHTQGCVETIAIWLRKNILLVAAAALGIAFVEVLGIIFSCCLVKSIRSGYEVM
